Assay results as given in PMC5325215.
Results are given in words; binding and its absence hold for the method and conditions named. In cells and extracts the contact can be indirect. Some entries that bind do so weakly or less than the wild type. Sequences can lack the tags named with a protein.

Tests used:
Assay in all cases: co-IP; COS-7 cells co-transfected with FLAG-tagged FILIP or deletion mutants and EYFP-tagged FILIP; immunoprecipitation with an anti-FLAG antibody
[1] = biological target: T1, FILIP d248-685 (3 x FLAG tagged) (rat) (UniProt Q8K4T4)
T1 sequence: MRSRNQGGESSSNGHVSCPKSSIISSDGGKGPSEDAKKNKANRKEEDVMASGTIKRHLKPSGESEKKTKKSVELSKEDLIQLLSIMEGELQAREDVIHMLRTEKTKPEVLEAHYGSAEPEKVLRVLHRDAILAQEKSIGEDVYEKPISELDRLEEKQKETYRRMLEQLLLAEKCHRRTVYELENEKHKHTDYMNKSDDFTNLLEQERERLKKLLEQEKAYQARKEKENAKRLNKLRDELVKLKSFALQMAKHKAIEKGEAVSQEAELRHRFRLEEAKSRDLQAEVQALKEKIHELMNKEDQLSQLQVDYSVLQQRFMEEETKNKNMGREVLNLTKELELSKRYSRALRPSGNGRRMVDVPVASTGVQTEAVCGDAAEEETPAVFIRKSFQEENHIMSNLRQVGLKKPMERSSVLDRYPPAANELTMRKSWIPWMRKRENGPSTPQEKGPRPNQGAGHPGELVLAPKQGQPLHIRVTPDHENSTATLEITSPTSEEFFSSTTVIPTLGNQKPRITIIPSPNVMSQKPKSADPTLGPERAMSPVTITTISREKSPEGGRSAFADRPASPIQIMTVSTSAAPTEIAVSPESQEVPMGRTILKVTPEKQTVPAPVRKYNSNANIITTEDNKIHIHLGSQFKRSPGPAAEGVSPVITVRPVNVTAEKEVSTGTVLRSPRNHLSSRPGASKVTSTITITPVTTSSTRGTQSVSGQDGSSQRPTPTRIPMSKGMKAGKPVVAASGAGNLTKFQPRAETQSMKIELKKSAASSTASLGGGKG

[2] = biological target: T2, 3 x FLAG tagged full-length FILIP (rat L-FILIP) (rat) (UniProt Q8K4T4)
T2 sequence: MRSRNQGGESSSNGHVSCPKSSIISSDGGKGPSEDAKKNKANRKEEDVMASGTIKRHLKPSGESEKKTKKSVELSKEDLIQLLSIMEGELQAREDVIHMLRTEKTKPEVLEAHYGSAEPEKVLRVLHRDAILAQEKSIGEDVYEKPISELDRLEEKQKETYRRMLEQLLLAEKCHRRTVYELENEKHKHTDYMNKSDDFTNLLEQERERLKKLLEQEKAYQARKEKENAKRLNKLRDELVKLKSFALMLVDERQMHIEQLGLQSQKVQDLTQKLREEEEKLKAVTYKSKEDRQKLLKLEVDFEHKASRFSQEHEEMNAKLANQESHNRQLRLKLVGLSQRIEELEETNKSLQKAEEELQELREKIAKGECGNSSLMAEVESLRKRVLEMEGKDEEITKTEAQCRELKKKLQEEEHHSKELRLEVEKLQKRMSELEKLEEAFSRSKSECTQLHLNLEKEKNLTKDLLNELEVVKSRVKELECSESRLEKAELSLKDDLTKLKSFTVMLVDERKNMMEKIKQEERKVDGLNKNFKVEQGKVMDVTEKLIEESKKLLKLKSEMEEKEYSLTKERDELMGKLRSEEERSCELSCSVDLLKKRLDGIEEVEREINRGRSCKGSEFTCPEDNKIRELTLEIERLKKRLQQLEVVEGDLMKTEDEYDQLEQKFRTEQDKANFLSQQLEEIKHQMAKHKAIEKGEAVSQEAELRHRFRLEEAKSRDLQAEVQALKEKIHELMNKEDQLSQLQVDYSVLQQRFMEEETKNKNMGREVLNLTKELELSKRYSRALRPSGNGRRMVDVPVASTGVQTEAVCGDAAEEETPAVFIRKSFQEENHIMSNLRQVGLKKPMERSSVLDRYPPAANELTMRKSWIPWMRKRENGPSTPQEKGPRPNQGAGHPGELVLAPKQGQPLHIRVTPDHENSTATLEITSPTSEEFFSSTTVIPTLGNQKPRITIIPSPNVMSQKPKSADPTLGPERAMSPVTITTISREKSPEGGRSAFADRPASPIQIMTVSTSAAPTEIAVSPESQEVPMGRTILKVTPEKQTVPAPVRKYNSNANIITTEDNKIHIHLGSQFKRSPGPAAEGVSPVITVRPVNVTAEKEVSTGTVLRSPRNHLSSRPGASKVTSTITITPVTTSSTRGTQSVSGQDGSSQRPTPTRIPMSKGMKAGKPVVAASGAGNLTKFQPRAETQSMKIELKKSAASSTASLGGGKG

[3] = biological target: T3, FILIP d872-1111 (3 x FLAG tagged) (rat) (UniProt Q8K4T4)
T3 sequence: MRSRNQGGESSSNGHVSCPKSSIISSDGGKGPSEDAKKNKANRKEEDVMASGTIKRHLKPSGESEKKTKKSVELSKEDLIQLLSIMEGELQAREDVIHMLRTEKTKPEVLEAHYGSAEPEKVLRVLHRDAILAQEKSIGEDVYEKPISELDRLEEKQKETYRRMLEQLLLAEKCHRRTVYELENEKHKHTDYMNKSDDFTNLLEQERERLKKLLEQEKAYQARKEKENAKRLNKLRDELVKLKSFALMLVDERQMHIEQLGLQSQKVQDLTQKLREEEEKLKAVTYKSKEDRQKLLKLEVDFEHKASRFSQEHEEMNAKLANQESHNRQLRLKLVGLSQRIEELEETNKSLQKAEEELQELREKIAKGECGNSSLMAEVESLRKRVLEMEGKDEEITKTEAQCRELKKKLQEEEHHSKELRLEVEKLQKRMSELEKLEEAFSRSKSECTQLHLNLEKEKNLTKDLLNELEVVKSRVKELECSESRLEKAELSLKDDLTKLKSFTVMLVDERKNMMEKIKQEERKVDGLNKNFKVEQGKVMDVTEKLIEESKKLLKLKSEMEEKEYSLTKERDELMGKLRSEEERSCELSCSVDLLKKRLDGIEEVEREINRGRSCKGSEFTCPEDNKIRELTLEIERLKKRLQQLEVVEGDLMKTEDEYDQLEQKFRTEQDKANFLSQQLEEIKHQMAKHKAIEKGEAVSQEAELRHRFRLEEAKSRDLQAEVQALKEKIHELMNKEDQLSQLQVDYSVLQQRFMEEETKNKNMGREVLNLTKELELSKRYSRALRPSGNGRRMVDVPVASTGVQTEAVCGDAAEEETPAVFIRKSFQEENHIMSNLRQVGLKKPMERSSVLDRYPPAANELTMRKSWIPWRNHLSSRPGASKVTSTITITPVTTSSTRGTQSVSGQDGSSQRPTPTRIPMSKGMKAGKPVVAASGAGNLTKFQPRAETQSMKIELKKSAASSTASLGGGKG

[4] = biological target: T4, FILIP d248-442 (3 x FLAG tagged) (rat) (UniProt Q8K4T4)
T4 sequence: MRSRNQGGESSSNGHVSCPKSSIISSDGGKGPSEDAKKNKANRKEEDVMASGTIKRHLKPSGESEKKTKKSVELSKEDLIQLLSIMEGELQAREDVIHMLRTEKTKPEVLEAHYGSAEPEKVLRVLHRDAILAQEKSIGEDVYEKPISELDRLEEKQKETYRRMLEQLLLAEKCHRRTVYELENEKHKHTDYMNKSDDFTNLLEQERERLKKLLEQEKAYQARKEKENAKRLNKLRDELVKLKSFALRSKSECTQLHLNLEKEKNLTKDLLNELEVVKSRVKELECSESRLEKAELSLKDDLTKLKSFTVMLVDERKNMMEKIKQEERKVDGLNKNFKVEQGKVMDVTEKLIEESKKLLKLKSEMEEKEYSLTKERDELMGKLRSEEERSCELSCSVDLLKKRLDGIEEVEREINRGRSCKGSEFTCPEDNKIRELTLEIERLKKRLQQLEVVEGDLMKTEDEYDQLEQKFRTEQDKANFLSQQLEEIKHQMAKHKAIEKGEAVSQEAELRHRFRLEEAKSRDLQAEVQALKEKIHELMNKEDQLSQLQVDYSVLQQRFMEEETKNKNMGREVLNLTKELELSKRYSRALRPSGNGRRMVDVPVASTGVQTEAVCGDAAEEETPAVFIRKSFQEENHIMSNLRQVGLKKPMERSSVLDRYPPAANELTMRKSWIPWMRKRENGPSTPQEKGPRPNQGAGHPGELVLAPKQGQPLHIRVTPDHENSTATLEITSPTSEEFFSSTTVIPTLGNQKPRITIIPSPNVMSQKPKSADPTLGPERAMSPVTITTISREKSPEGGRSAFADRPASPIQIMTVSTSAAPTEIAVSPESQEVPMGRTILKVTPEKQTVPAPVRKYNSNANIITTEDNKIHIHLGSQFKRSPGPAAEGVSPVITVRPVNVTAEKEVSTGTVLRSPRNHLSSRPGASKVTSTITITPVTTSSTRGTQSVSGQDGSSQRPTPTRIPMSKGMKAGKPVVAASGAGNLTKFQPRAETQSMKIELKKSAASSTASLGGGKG

B1: EYFP-tagged FILIP (rat L-FILIP, full length) (protein, UniProt Q8K4T4-1 1-1212)
chain: T2 sequence
Q: What does the source list for B1?
A: binding [1]: no binding; binding [2]: binds; binding [3]: binds weakly; binding [4]: binds weakly
